No constants are given. Whether binding was seen depends on the method and setting.
Target: T1, human DISC1 fragment comprising residues 691-836 (C region) (human), Q9NRI5
T1 chain: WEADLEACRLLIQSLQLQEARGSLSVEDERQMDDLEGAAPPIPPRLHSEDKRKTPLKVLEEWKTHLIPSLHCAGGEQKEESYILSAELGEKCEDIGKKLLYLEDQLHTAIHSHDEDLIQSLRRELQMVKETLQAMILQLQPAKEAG
Assay: SAXS; small angle X-ray scattering at 20°C; DISC1^691-836 at 2.8 mg/mL, VHH B5 at 2.8 and 5.6 mg/mL, complex co-purified by SEC at 2.3 mg/mL; both purified
Conditions: remark: other sources report otherwise

binding: no binding (tested: 2.8 mg/mL)
B1: human DISC1 fragment comprising residues 691-836 (C region), Q9NRI5 691-836 (domain or fragment)
chain: WEADLEACRLLIQSLQLQEARGSLSVEDERQMDDLEGAAPPIPPRLHSEDKRKTPLKVLEEWKTHLIPSLHCAGGEQKEESYILSAELGEKCEDIGKKLLYLEDQLHTAIHSHDEDLIQSLRRELQMVKETLQAMILQLQPAKEAG
